Values from PubChem BioAssay AID1259254 (NCATS, 2017)

Purpose: 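Genome-wide screen for genes that prevent DNA re-replication in cancer cells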 (primary screen)
Cells: human HCT116 colorectal cancer cells
Reagent: single siRNA against human genes
Time to read-out: 3 days
Measured: 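Imaged Hoechst DNA stain sorts each cell into a cycle phase by DNA amount; per plate, G2 fraction set to 0% for non-targeting and 100% for GMNN siRNA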
Scale: G2 robust z-score and G2 cells, % of GMNN control: higher = more G2 cells, more excess DNA replication
Call rule: 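Active siRNAs have a G2 robust z of 5 or more median absolute deviations over the median, which in these data means about 38% or higher of GMNN control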
The deposit covers about 59,000 reagents; below is a random part of them. About 1,550 of them (2.6%) count as active. 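G2 share is only a proxy for re-replication; each gene was hit by three separate siRNAs, and active genes were retested.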 Reagents against one gene are numbered here. Further read-outs or replicates are left out here. No sequences are given here. The record does not give: the amount of reagent.

GNAT2 #1
- G2 robust z-score: -0.895
- G2 cells, % of GMNN control: -3.33
- Outcome: inactive

GNAT2 #2
- G2 robust z-score: 0.496
- G2 cells, % of GMNN control: 6.46
- Outcome: inactive

GNAT2 #3
- G2 robust z-score: -0.266
- G2 cells, % of GMNN control: 1.09
- Outcome: inactive

MR1 #1
- G2 robust z-score: -0.197
- G2 cells, % of GMNN control: 1.58
- Outcome: inactive

MR1 #2
- G2 robust z-score: -0.759
- G2 cells, % of GMNN control: -2.37
- Outcome: inactive

MR1 #3
- G2 robust z-score: -0.433
- G2 cells, % of GMNN control: -0.0771
- Outcome: inactive

Next part, starting with the last 2 of the part before.
MR1 #2
- G2 robust z-score: -0.759
- G2 cells, % of GMNN control: -2.37
- Outcome: inactive

MR1 #3
- G2 robust z-score: -0.433
- G2 cells, % of GMNN control: -0.0771
- Outcome: inactive

MTUS2 #1
- G2 robust z-score: 3.25
- G2 cells, % of GMNN control: 25.8
- Outcome: inactive

MTUS2 #2
- G2 robust z-score: -0.427
- G2 cells, % of GMNN control: -0.0337
- Outcome: inactive

MTUS2 #3
- G2 robust z-score: 0.461
- G2 cells, % of GMNN control: 6.21
- Outcome: inactive

USP46-DT #1
- G2 robust z-score: -0.0884
- G2 cells, % of GMNN control: 2.35
- Outcome: inactive

USP46-DT #2
- G2 robust z-score: 0.6
- G2 cells, % of GMNN control: 7.19
- Outcome: inactive

USP46-DT #3
- G2 robust z-score: -0.732
- G2 cells, % of GMNN control: -2.19
- Outcome: inactive
